# The list shows a part of the results. The main result of the screen is listed elsewhere. These columns were measured beside it and carry no call. Most of these compounds were active or inconclusive in the main read-out, so they are no random draw. Words in brackets tell the shape of the fitted curve; partial curves, single points and poor fits give uncertain potencies. Where a SMILES comes first, the peptide text is derived from it. [ ]: non-standard residue; d: D form. The star is where a group is joined. Hyp = O=C(O)[CH]1C[CH](O)CN1; Cbz = O=C(OCc1ccccc1)*; OBn = c1ccc(CO*)cc1
# Assay: IkB Signaling
# Conditions: ABC-DLBCL IkBa-CBG/CBR dual luciferase ratio (green luciferase fused to IkBa over red control in OCI-Ly3 lymphoma cells), 4 h
# Summary of the method: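 Luminescence ratio of IκBα-fused green versus native red beetle luciferase in OCI-Ly3 cells, 4 h post-doxycycline with compound; red signal alone, scaled from basal (0%) to zero light (-100%), flagged nonspecific or cytotoxic effects.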
# [1] = measured here: control luc red channel unless noted
# [2] = measured here: IkB-luc green channel
# [3] = measured here: control luc red channel
smiles,measurement,setting,value
CN1CCN(C(CNC(=O)C(=O)Nc2ccc(F)cc2F)c2ccc3c(c2)OCO3)CC1 (stereo not drawn),AC50,[1],"10 µM [falling, partial curve]"
COc1ccc2cc(CN(CC3COCCO3)S(=O)(=O)c3ccc(Cl)cc3)c(=O)[nH]c2c1 (stereo not drawn),AC50,[1],"0.126 µM [rising, full curve, poor fit]"
CC(C)Oc1ccc(CNS(=O)(=O)c2cnc(N)nc2)cc1,AC50,[1],"0.501 µM [rising, full curve, poor fit]"
O=C(CN1C(=O)C2(SCC(=O)N2c2ccccc2)c2ccccc21)NCc1ccccc1Cl (stereo not drawn),AC50,[1],"7.94 µM [falling, partial curve]"
O=C(NC1CCCCC1)c1ccc2c(c1)N(Cc1ccccc1)C(=O)c1ccccc1S2,AC50,[1],"12.6 µM [falling, partial curve, poor fit]"
CCCCNc1nc(Oc2ccc(=O)n(C)n2)nc(N(C)C)n1,AC50,[1],"12.6 µM [falling, single point]"
Cc1ccc(-c2nc(CS(=O)CC(=O)N3CCN(c4ccccc4)CC3)c(C)o2)cc1 (stereo not drawn),AC50,[1],"31.6 µM [falling, partial curve]"
CCN(CC)c1cc(C)c2cc(NC(=O)/C=C/c3ccc(C)cc3)ccc2n1,AC50,[1],"3.98 µM [falling, partial curve]"
O=[N+]([O-])c1cc(Cc2cc([N+](=O)[O-])c3cccnc3c2O)c(O)c2ncccc12,AC50,[2],"3.98 µM [rising, partial curve]"
same,AC50,[3],"3.98 µM [falling, single point]"
COc1ccc(Cl)cc1NC(=O)c1cc2c(s1)-c1ccccc1OC2,AC50,[1],"6.31 µM [falling, partial curve]"
CS(=O)(=O)N(CC(=O)NCCSc1ccccc1)c1cc(C(F)(F)F)ccc1Cl,AC50,[1],"39.8 µM [falling, single point]"
COc1ccc(OC)c(NC(=O)CSc2cn(CC(=O)N3CCOCC3)c3ccccc23)c1,AC50,[1],"39.8 µM [falling, single point]"
CC(=O)Nc1ccc(S(=O)(=O)Nc2cccc(-c3nc4cc(C)ccc4o3)c2)cc1,AC50,[1],"10 µM [falling, partial curve]"
O=C(CSc1nc2c(cnn2-c2ccc(F)cc2)c(=O)[nH]1)Nc1ccc(Br)cc1,AC50,[1],"0.01 µM [falling, full curve, poor fit]"
CC1CCN(C(=O)COC(=O)c2cc3ccccc3cc2O)CC1,AC50,[1],"31.6 µM [falling, single point]"
Cc1cccc(C)c1Nc1c(-c2ccc(Cl)s2)nc2ncccn12,AC50,[1],"25.1 µM [falling, single point]"
O=C(Nc1ccc(SC(F)F)cc1)c1cc(-c2ccc3c(c2)OCCO3)on1,AC50,[1],"0.631 µM [falling, full curve]"
Cc1noc(Cn2c(=O)c3cc4c(cc3n(CC(=O)Nc3cccc(Cl)c3)c2=O)OCO4)n1,AC50,[1],"15.8 µM [falling, single point]"
CCOc1ccc(CNC(=O)c2c(C)nn(-c3ccc(F)cc3)c2-n2cccc2)cc1,AC50,[1],"25.1 µM [falling, single point]"
CCOc1ccccc1NC(=O)C1CCN(S(=O)(=O)c2c(C)noc2/C=C/c2ccc(C)cc2)CC1,AC50,[1],"0.00631 µM [falling, full curve]"
COc1ccccc1OCCn1cc(C(=O)c2cccs2)c2ccccc21,AC50,[1],"10 µM [falling, partial curve]"
O=C(CSc1nnc(-c2cnccn2)n1Cc1ccco1)c1ccc(Cl)cc1,AC50,[1],"7.94 µM [falling, partial curve]"
CCOC(=O)N1CCN(C(=O)CN(c2cccc(Cl)c2C)S(=O)(=O)c2ccc(C)cc2)CC1,AC50,[1],"25.1 µM [falling, partial curve, poor fit]"
COc1ccccc1-c1nc(-c2ccc(Br)o2)no1,AC50,[1],"0.501 µM [falling, partial curve]"
Cc1cccc(-n2c(SCC(N)=O)nc3c(oc4ccccc43)c2=O)c1,AC50,[1],"2.51 µM [rising, partial curve]"
Cc1c(Cl)ccc2sc(N3CCN(C(=O)c4ccco4)CC3)nc12,AC50,[1],"25.1 µM [falling, single point]"
OC[C@H](S)CS,AC50,[2],"3.98 µM [rising, partial curve]"
same,AC50,[3],"3.16 µM [falling, partial curve]"
COc1ccccc1CNc1ccc(-c2nc(C(C)C)no2)cc1[N+](=O)[O-],AC50,[1],"31.6 µM [falling, single point]"
CCOc1ccc(CNC(=O)c2cc3oc4ccccc4c3n2C)cc1,AC50,[1],"0.126 µM [falling, full curve]"
Cc1ccc(C)c(NC(=O)Cn2cc(C(=O)c3ccncc3)c(=O)c3cc(F)ccc32)c1,AC50,[1],"1.58 µM [falling, full curve]"
CCN(CCNC(=O)CN1CCN(Cc2ccc(Cl)cc2)C1=O)c1ccccc1,AC50,[1],"6.31 µM [falling, partial curve]"
Cc1cc(C)c2c(CC(=O)N(Cc3ccc(N(C)C)cc3)Cc3ccco3)coc2c1,AC50,[1],"20 µM [falling, partial curve]"
O=C(O)c1ccc(CSc2nc3ccccc3o2)cc1,AC50,[1],"7.94 µM [falling, partial curve]"
O=C(CSc1nc2c(c(=O)[nH]1)CCC2)Nc1ccccc1F,AC50,[1],"31.6 µM [falling, single point]"
CN(C)c1ccc(CNc2nc(-c3ccco3)nn2S(=O)(=O)c2ccc3ccccc3c2)cc1,AC50,[1],"3.98 µM [falling, full curve]"
Cc1ccc(C(=O)Nc2ccc(Cl)c(-c3nc4ncccc4o3)c2)c(C)c1,AC50,[1],"15.8 µM [falling, partial curve]"
Cc1ccccc1OCc1ccc(-c2nc(C#N)c(NCCCN(C)C)o2)o1,AC50,[1],"20 µM [falling, single point]"
O=C(Nc1ccc(F)cc1)[C@H](Cc1ccccc1)N1Cc2ccccc2C1=O,AC50,[1],"25.1 µM [falling, single point]"
CCCCCn1c(CN2CCN(c3cccc(Cl)c3)CC2)nc2c1c(=O)[nH]c(=O)n2C,AC50,[1],"20 µM [falling, partial curve]"
CC(C)CCOc1ccc(C(=O)Nc2sc3c(c2C#N)CCCCC3)cc1,AC50,[1],"0.0398 µM [rising, full curve, poor fit]"
Cn1nnnc1SCCCNCc1cccc(OCc2ccc(Cl)cc2)c1,AC50,[1],"10 µM [falling, single point]"
CCOC(=O)C1C(C)N=C2SCC(=O)N2C1c1cccc(Br)c1 (stereo not drawn),AC50,[1],"15.8 µM [falling, partial curve, poor fit]"
Cc1c(Cl)cccc1-n1ncc(C(=O)Nc2ccc3c(c2)OCCO3)c1C1CCN(C(=O)OC(C)(C)C)CC1,AC50,[1],"39.8 µM [falling, single point]"
Cc1ccc2cc3cc(C(=O)Nc4ccc(F)cc4Cl)oc3nc2c1,AC50,[1],"25.1 µM [rising, single point]"
Cc1cc(C)cc(NC(=O)c2cc(S(=O)(=O)N3CCCCCC3)cn2C)c1,AC50,[1],"12.6 µM [falling, partial curve]"
Cn1c(SCc2ccc(F)cc2)nc2ccc(C(=O)NCc3ccc(F)cc3)cc21,AC50,[1],"7.94 µM [falling, full curve, poor fit]"
Cc1ccc(-n2nc3c(N4CCC(C(=O)NC(C)C)CC4)nnc(C)c3c2C)cc1,AC50,[1],"1.58 µM [falling, full curve, poor fit]"
COc1ccc2cc(C(=O)NCc3ccco3)c(=Nc3ccc(C(=O)O)cc3)oc2c1,AC50,[1],"0.0316 µM [falling, full curve]"
CCC1CN(C(=O)N2CCC(C(=O)NCc3ccc(OC)cc3OC)CC2)c2cc(C)ccc2O1 (stereo not drawn),AC50,[1],"1.26 µM [falling, partial curve]"
O=C(CC(Nc1ccccc1)C(=O)O)c1ccccc1 (stereo not drawn),AC50,[1],"7.94 µM [falling, partial curve]"
Cc1cc(C)c2oc(C(=O)Nc3sc4c(c3C(=O)NCc3ccco3)CCC4)cc(=O)c2c1,AC50,[1],"10 µM [falling, partial curve]"
Cc1ccc(C)c(CN2C(=O)c3ccccc3S(=O)(=O)c3ccc(C(=O)Nc4ccccc4C(F)(F)F)cc32)c1,AC50,[1],"10 µM [falling, partial curve]"
Cc1ccccc1CNC(=O)C1CCN(c2nnc(C)c3c(C)n(-c4ccccc4)nc23)CC1,AC50,[1],"0.0398 µM [rising, full curve]"
CCn1c(=O)cc(SCC(=O)Nc2ccc3c(c2)OCO3)c2ccccc21,AC50,[1],"12.6 µM [falling, partial curve]"
CCc1ccc(-c2nc3ccc(Br)cc3c(C(=O)O)c2C)s1,AC50,[1],"39.8 µM [falling, single point]"
COC(=O)c1ccc(NC(=O)c2c(NCc3ccc(C)o3)sc3c2CCCC3)cc1,AC50,[1],"12.6 µM [falling, partial curve]"
CC(NC(=O)CNC(=O)OCc1ccccc1)C(=O)N1CC(O)CC1C(=O)OCc1ccccc1 (stereo not drawn) (Cbz-Gly-Ala-[Hyp]-OBn; configuration not given here),AC50,[1],"31.6 µM [falling, single point]"
CCn1c(C(=O)NCc2cccc(Br)c2)cc2oc3ccccc3c21,AC50,[1],"25.1 µM [falling, single point]"
CCCC(=O)N1c2ncnn2C2(CCCCC2)[C@@H]2CCCC[C@@H]21,AC50,[1],"50.1 µM [falling, partial curve, poor fit]"
COc1ccc(N2CCN(C(=O)Cn3cnc4nc5c(cc4c3=O)CCCC5)CC2)cc1,AC50,[1],"1.58 µM [falling, full curve]"
O=C(Nc1ccc(Cc2ccncc2)cc1)c1ccc(S(=O)(=O)N2CCOCC2)cc1,AC50,[1],"10 µM [falling, partial curve]"

# Fetched one by one from the entries so far, 3 records:
smiles,measurement,setting,value
Cc1ccc(-n2nc3c(N4CCC(C(=O)NC(C)C)CC4)nnc(C)c3c2C)cc1,AC50,[1],"1.58 µM [falling, full curve, poor fit]"
Cc1ccc(C(=O)Nc2ccc(Cl)c(-c3nc4ncccc4o3)c2)c(C)c1,AC50,[1],"15.8 µM [falling, partial curve]"
Cc1c(Cl)cccc1-n1ncc(C(=O)Nc2ccc3c(c2)OCCO3)c1C1CCN(C(=O)OC(C)(C)C)CC1,AC50,[1],"39.8 µM [falling, single point]"

# — PubChem BioAssay AID445 (National Center for Advancing Translational Sciences (NCATS), 2006)
